These are yes or no findings as the source states them, for the method shown. For part of these data: A result given as binding can be weak or reduced; the word gives no strength.
Tests used:
[1] = target: Helicobacter pylori FabX (H. pylori); experiment: crystal structure; FabX-holo-ACP complex (mixed 1:1.2, purified on Superdex75), crystallised at 292 K in 0.1 M HEPES pH 7.0, 20% PEG 8000; space group P2(1), 2.8 Å; both purified
[2] = target: Helicobacter pylori FabX (H. pylori); experiment: ITC; FabX or FabX R164A in the cell, holo-ACP in the syringe (1:10); 10 °C; 20 mM HEPES pH 8.0, 150 mM NaCl, 1 mM TCEP; both purified
[3] = target: Helicobacter pylori FabX R164A (H. pylori); experiment: as above

B1: Helicobacter pylori holo-acyl carrier protein (protein, UniProt P56464 1-78)
chain: MALFEDIQAVIAEQLNVDAVQVTPEAEFVKDLGADSLDVVELIMALEEKFGVEIPDEQAEKIINVGDVVKYIEDNKLA
modifications: phosphopantetheine group (PPant) on Ser36
binding [1]: binds | binding [2]: binds | binding [3]: no binding
